Among the data in US20170342133A1 are binding values, retold here.

Sequences of proteins named here, by UniProt entry; tags and fusion partners are left off. A change or cut given only in a name is not applied to a line headed by its entry.
UniProt P40238: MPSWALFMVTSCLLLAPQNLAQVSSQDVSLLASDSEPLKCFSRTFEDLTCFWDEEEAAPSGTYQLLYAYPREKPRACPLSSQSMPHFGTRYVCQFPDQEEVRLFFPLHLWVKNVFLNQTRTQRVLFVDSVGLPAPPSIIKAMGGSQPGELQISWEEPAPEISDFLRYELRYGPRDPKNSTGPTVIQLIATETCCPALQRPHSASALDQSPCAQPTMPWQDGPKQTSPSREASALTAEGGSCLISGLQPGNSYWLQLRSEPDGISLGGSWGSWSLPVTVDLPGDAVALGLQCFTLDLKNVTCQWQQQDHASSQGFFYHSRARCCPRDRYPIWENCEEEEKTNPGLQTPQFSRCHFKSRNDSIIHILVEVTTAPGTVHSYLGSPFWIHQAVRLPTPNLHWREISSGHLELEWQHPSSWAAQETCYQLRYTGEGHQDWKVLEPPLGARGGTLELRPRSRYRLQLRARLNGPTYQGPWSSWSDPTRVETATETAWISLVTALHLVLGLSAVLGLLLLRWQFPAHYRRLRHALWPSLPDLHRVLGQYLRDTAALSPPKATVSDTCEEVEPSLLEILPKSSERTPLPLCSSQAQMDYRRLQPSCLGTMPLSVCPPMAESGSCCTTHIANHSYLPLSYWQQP

In this assay the target is MG10-GST fusion protein (human) (UniProt P40238). Put plainly: affinity chromatography on immobilized MG10-GST fusion protein.

Results are given in words; binding and its absence hold for the method and conditions named. Some results given as binding are weak or reduced against the parent protein; the word gives no strength.

B1: hVB22B u2-wz4(v1) sc(Fv)2 (scFv)
scFv: QVQLVQSGPEVKKPGASVKVSCKASGYTFTNSWMNWVRERPGKGLEWIGRIYPGDGETIYNGKFRVRVTITADESTSTAYMQLSSLRSEDTAVYYCARGYDDYSFAYWGQGTTVTVSSGGGGSGGGGSGGGGSDIVMTQSPLSLPVTPGEPASISCRSSKSLLHSNGNTYLYWFLEKPGQSPQLLIYRMSNLASGVPDRFSGSGSGTDFTLKISRVEAEDVGVYYCMQHIEYPFTFGQGTKLEIKGGGGSGGGGSGGGGSQVQLVQSGPEVKKPGASVKVSCKASGYTFTNSWMNWVRKRPGKGLEWIGRIYPGDGETIYNGKFRVRVTITADESTSTAYMQLSSLRSEDTAVYYCARGYDDYSFAYWGQGTTVTVSSGGGGSGGGGSGGGGSDIVMTQSPLSLPVTPGEPASISCRSSKSLLHSNGNTYLYWFLKKPGQSPQLLIYRMSNLASGVPDRFSGSGSGTDFTLKISRVEAEDVGVYYCMQHIEYPFTFGQGTKLEIK
B1: the binding result is recorded as “binds”.

B2: hVB22B u2-wz4(v3) sc(Fv)2 (scFv)
scFv: QVQLVQSGPEVKKPGASVKVSCKASGYTFTNSWMNWVRERPGKGLEWIGRIYPGDGETIYNGKFRVRVTITADESTSTAYMQLSSLRSEDTAVYYCARGYDDYSFAYWGQGTTVTVSSGGGGSGGGGSGGGGSDIVMTQSPLSLPVTPGEPASISCRSSKSLLHSNGNTYLYWFLKKPGQSPQLLIYRMSNLASGVPDRFSGSGSGTDFTLKISRVEAEDVGVYYCMQHIEYPFTFGQGTKLEIKGGGGSGGGGSGGGGSQVQLVQSGPEVKKPGASVKVSCKASGYTFTNSWMNWVRKRPGKGLEWIGRIYPGDGETIYNGKFRVRVTITADESTSTAYMQLSSLRSEDTAVYYCARGYDDYSFAYWGQGTTVTVSSGGGGSGGGGSGGGGSDIVMTQSPLSLPVTPGEPASISCRSSKSLLHSNGNTYLYWFLEKPGQSPQLLIYRMSNLASGVPDRFSGSGSGTDFTLKISRVEAEDVGVYYCMQHIEYPFTFGQGTKLEIK
Regarding B2, the binding entry is “binds”.
